For two molecules, binding results are on record in article PMC3053396.

The target of assay [1] is Dmknδ5-Nt in pGBKT7, two-hybrid fusion (human). The assay is described as follows: two-hybrid; Matchmaker Gal4 system, yeast AH109; Dmknδ5 constructs in pGBKT7 as bait, Rab5 in pGAD10 or pGADT7; growth on medium lacking Trp, Leu, His and Ade, β-galactosidase filter assay.
Assay [2] concerns the target Dmknδ5-Ct in pGBKT7, two-hybrid fusion (human). Described as above.
The target of assay [3] is Dmknδ5 (dermokine delta 5) in pGBKT7, two-hybrid bait (human). The assay is described as above.
Assay [4] concerns the target GST-Dmknδ5 fusion protein (human). The assay is described as follows: pull-down; GST-Dmknδ5 on glutathione sepharose beads; cleaved Rab5bwt preloaded with 500 µM GDP (inactive conformation); both purified.
Assay [5] has the same target. Nature of the assay: pull-down; GST-Dmknδ5 (30 µg) on glutathione sepharose beads, 10 µg recombinant Rab5b, 1 hour at 4°C; eluted with glutathione, immunoblot with anti-Rab5; both purified.
Assay [6] shares this target. The assay is described as follows: pull-down; GST-Dmknδ5 on glutathione sepharose beads; cleaved Rab5bwt preloaded with 500 µM GppNHp (active conformation); both purified.

These are yes or no findings as the source states them, for the method shown. For part of these data: Binding calls can cover weak binding; strength is not graded here. For part of these data: Tags and fused reporters may be left off the sequences shown.

B1: Rab5b, library clone in pGAD10 (protein, UniProt P61020 1-215)
chain: MTSRSTARPNGQPQASKICQFKLVLLGESAVGKSSLVLRFVKGQFHEYQESTIGAAFLTQSVCLDDTTVKFEIWDTAGQERYHSLAPMYYRGAQAAIVVYDITNQETFARAKTWVKELQRQASPSIVIALAGNKADLANKRMVEYEEAQAYADDNSLLFMETSAKTAMNVNDLFLAIAKKLPKSEPQNLGGAAGRSRGVDLHEQSQQNKSQCCSN
Regarding B1, the binding result in assay [1] is reported as “binds”; in assay [2], “no binding”; in assay [3] it was “binds”.

B2: purified recombinant wild-type Rab5b, GST removed (protein, UniProt P61020 1-215)
chain: MTSRSTARPNGQPQASKICQFKLVLLGESAVGKSSLVLRFVKGQFHEYQESTIGAAFLTQSVCLDDTTVKFEIWDTAGQERYHSLAPMYYRGAQAAIVVYDITNQETFARAKTWVKELQRQASPSIVIALAGNKADLANKRMVEYEEAQAYADDNSLLFMETSAKTAMNVNDLFLAIAKKLPKSEPQNLGGAAGRSRGVDLHEQSQQNKSQCCSN
For B2, the binding result in assay [4], in assay [5] and in assay [6] was “binds” in each case.
